A negative result means that nothing was seen under these conditions. At least one verdict was read from the data and is not stated in words by the source. For at least one entry, the source does not settle the construct or the ends of the probe.
System: human alpha-thrombin (Homo sapiens)
Assay: sandwich proximity extension/transcription, AuNP colorimetric and molecular beacon read-out
Details: 1x T7 RNA polymerase buffer (40 mM Tris-HCl pH 8.0, 8 mM MgCl2, 2 mM spermidine), 5 mM DTT, 15% DMSO, NTPs/dNTPs, 0.2 uM each probe, 42 C, commercial protein, single-stranded DNA

Sequence: CGCCTAGGTTGGGTAGGGTGGTGGCGTTTTTTTTTTAATTCTAATACGACTCACTATAGGGAGAGGCAATAGCTCTGGCAATTTCTTAGGCTAG [Probe-A (NU172 aptamer + T7 promoter)]
- binding result (with Probe-B, 8 mM Mg2+, assay LOD 4 nM (not a Kd)): binds

Sequence: TTTTTTTTTTAATTCTAATACGACTCACTATAGGGAGAGGCAATAGCTCTGGCAATTTCTTAGGCTAG [NA (Probe-A without aptamer)]
- binding result (with NB, 100 nM thrombin, no signal): no binding

Sequence: TTTTTTTTTTCTTTTGCCGGTTGTTGACGATTCGTAGTTGATGATCGGGTACTAGCC [NB (Probe-B without aptamer)]
- binding result (with NA, 100 nM thrombin, no signal): no binding

Sequence: AGTCCGTGGTAGGGCAGGTTGGGGTGACTTTTTTTTTTTCTTTTGCCGGTTGTTGACGATTCGTAGTTGATGATCGGGTACTAGCC [Probe-B (HD22 aptamer)]
- binding result (with Probe-A, 8 mM Mg2+, assay LOD 4 nM (not a Kd)): binds
